Measurements: article PMC10717141
These are yes or no findings as the source states them, for the method shown. Binding seen in cells or lysates may run through a third protein. Some binding calls cover weakened binding; strength is not graded here.

Biological target: T1, eIF4G2 (human (endogenous in SW620 and LoVo)) (UniProt P78344)
T1 sequence: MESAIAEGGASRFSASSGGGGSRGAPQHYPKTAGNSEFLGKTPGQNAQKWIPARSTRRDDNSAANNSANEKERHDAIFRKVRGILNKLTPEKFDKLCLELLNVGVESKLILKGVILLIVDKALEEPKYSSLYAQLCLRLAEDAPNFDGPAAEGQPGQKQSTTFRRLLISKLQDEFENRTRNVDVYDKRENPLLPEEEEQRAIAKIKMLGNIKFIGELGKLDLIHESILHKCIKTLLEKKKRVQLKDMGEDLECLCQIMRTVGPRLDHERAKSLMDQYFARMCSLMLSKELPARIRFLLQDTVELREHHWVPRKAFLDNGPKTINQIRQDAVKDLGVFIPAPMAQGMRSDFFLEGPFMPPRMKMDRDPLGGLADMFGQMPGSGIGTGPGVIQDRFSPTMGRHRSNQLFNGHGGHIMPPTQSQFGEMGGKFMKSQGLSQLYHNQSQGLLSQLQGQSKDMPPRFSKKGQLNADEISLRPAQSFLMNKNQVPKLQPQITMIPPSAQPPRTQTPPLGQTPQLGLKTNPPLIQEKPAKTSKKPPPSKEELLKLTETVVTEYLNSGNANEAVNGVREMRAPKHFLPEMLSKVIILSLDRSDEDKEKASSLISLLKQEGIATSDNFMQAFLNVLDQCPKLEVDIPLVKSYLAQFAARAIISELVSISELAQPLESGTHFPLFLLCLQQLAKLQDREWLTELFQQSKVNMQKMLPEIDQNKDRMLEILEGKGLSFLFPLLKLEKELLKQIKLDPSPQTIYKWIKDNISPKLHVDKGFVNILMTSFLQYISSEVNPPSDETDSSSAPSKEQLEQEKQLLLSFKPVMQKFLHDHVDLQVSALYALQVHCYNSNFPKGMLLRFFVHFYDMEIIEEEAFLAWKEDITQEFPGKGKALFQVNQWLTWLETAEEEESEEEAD
Assay: co-IP; endogenous proteins in SW620 and LoVo lysates (RIPA buffer), primary antibody 4 °C 3 h, protein A/G agarose, western blot

B1: YTHDF3 (protein, UniProt Q7Z739 1-585)
chain: MSATSVDQRPKGQGNKVSVQNGSIHQKDAVNDDDFEPYLSSQTNQSNSYPPMSDPYMPSYYAPSIGFPYSLGEAAWSTAGDQPMPYLTTYGQMSNGEHHYIPDGVFSQPGALGNTPPFLGQHGFNFFPGNADFSTWGTSGSQGQSTQSSAYSSSYGYPPSSLGRAITDGQAGFGNDTLSKVPGISSIEQGMTGLKIGGDLTAAVTKTVGTALSSSGMTSIATNSVPPVSSAAPKPTSWAAIARKPAKPQPKLKPKGNVGIGGSAVPPPPIKHNMNIGTWDEKGSVVKAPPTQPVLPPQTIIQQPQPLIQPPPLVQSQLPQQQPQPPQPQQQQGPQPQAQPHQVQPQQQQLQNRWVAPRNRGAGFNQNNGAGSENFGLGVVPVSASPSSVEVHPVLEKLKAINNYNPKDFDWNLKNGRVFIIKSYSEDDIHRSIKYSIWCSTEHGNKRLDAAYRSLNGKGPLYLLFSVNGSGHFCGVAEMKSVVDYNAYAGVWSQDKWKGKFEVKWIFVKDVPNNQLRHIRLENNDNKPVTNSRDTQEVPLEKAKQVLKIIATFKHTTSIFDDFAHYEKRQEEEEAMRRERNRNKQ
  binding: binds
